Data from patent US20220000160A1, “FLAVONOID DELIVERY SYSTEM” (priority 2019, published 2022).
At least one compound was matched to its structure with a doubt left.

Columns and labels:
[1] = Dispersibility in phosphate buffer (pH 7.0), particle size and obscuration by Mastersizer; format: physicochemical
[2] = Rutin concentration and recovery from fortified yoghurts during storage; format: physicochemical

For C[C@@H]1O[C@@H](OC[C@H]2O[C@@H](Oc3c(-c4ccc(O)c(O)c4)oc4cc(O)cc(O)c4c3=O)[C@H](O)[C@@H](O)[C@@H]2O)[C@H](O)[C@H](O)[C@H]1O [Free rutin, quercetin-3-rhamnosylglucoside], which “dispersibility (change of particle size)” value ([1]; phosphate buffer pH 7.0, over 120 min, FIG. 2) is on record?
Its value is “did not show any significant dispersibility”.

And the obscuration index ([1]; phosphate buffer pH 7.0, room temperature, over 120 min, plateau, FIG. 4)?
The obscuration index was “approximately constant”.

What about the “Percentage of recovery of rutin from fortified yoghurts” value (“Percentage of recovery of rutin” below) ([2]; storage 1 day) of the same compound?
The value was 88%.

What about the “Percentage of recovery of rutin” value ([2]; storage 7 days) of the same compound?
Its value is 81%.

And the “Percentage of recovery of rutin” value ([2]; storage 14 days)?
Its value is 65%.

What about the “Percentage of recovery of rutin” value ([2]; storage 21 days) of the same compound?
Its value is 86%.

And the “rutin concentration in yoghurt during storage” value ([2]; yoghurts stored for 21 days)?
Its value is “does not change significantly”.
